In US20150374844A1 (UNIVERSITY OF PENNSYLVANIA, priority 2013, published 2015):

Experiment: peptide synthesis
Conditions: conjugation step, uv quantified

WSDLAQALSDLAQALSDLAQALSDLAQAGGC-OS1 conjugate
conjugation yield: 12.62%
